Data published in patent US6964763.
No constants are given. Whether binding was seen depends on the method and setting. Some results given as binding are weak or reduced against the parent protein; the word gives no strength.

Sequences of proteins named here, by UniProt entry; tags and fusion partners are left off. Residues count along the entry.
UniProt P07996, residues 19-1170: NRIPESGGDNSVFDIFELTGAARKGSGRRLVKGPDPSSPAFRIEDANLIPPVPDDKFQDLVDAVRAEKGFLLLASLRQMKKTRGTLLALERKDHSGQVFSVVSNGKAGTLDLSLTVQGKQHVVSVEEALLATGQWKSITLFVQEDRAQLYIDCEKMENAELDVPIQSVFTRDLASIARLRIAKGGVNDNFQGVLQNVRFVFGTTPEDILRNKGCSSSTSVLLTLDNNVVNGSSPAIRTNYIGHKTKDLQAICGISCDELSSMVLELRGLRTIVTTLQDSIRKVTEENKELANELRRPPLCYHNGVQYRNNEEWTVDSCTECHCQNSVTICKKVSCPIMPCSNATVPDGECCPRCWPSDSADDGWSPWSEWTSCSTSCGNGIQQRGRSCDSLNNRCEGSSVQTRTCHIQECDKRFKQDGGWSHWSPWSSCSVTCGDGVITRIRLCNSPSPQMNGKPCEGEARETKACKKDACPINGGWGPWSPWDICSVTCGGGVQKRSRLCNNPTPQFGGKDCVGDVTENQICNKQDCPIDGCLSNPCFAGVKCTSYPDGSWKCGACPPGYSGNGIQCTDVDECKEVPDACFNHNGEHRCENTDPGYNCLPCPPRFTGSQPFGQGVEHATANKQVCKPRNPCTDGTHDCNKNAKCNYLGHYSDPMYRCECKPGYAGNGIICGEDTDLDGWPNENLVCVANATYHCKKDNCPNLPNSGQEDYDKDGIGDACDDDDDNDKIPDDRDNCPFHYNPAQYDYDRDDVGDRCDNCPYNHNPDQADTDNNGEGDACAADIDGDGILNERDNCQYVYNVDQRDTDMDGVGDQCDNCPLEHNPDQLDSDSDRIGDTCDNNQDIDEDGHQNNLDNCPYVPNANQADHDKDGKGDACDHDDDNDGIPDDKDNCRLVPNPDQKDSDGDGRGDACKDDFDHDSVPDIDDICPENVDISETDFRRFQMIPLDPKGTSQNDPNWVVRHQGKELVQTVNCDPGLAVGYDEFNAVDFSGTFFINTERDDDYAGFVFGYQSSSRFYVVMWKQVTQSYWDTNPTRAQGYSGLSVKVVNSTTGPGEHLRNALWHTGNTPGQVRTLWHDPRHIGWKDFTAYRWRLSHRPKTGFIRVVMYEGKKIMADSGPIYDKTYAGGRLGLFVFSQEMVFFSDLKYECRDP
UniProt P13501, residues 24-91: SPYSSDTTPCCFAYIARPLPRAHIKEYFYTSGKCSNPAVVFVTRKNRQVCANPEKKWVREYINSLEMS

What was measured:
[1] = molecular target: Purified human calcium-replete thrombospondin-1 (TSP1) from thrombin-activated platelets (human) (UniProt P07996); assay: solid phase binding, 125I-RANTES (0.01 µM -10.0 µM) on immobilized TSP1
[2] = molecular target: Purified human calcium-replete thrombospondin-1 (TSP1) from thrombin-activated platelets (human) (UniProt P07996); assay: solid phase binding, 125I-RANTES on immobilized TSP1

binding [1]: binds
binding [2]: binds
Substance: RANTES (regulated on activation normal T expressed and secreted protein) (from UniProt P13501 24-91) (ligand)
